Read-outs that look alike come from different tables or passages of the source. Results are given in words; binding and its absence hold for the method and conditions named. Binding seen in cells or lysates may run through a third protein. Here binding means that the protein was enriched with, or labelled near, the bait; the list need not be complete. For part of these data: A no says only that the protein was not detected with the bait. Values belong to the binder of their own block, whether it stands above or below them.
Legend:
[1] = biological target: T1, 2-Oxoacid:ferredoxin oxidoreductases, β2 subunit (Thermococcus kodakarensis) (UniProt Q5JE71); experiment: affinity purification with mass spectrometry; HA- and His6-tagged bait made from its native locus, captured from clarified T. kodakarensis lysate on a Ni2+-charged chelating column (buffer A: 10 mM Tris HCl pH 8.0, 500 mM NaCl, 10% glycerol), eluted with an imidazole gradient; pooled fractions identified by MuDPIT LC-MS/MS and compared with the parental strain TS559 (P < 0.05, log2 fold change ≥ 2); cells grown at 85°C with (+S˚) or without (–S˚) elemental sulfur
T1 sequence: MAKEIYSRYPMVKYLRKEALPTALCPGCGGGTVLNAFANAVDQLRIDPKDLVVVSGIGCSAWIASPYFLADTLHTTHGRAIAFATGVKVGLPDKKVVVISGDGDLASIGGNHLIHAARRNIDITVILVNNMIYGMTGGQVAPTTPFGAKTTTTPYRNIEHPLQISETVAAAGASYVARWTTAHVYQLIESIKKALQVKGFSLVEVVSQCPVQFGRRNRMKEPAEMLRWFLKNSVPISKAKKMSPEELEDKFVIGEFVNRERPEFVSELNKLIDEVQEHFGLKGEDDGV

Sequences of proteins named here, by UniProt entry; tags and fusion partners are left off. A change or cut given only in a name is not applied to a line headed by its entry.
UniProt Q5JE61: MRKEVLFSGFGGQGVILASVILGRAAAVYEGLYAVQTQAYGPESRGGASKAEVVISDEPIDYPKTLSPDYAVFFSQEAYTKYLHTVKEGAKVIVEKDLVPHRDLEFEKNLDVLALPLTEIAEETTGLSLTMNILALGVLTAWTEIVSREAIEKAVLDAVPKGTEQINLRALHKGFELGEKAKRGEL

[2] = biological target: 2-Oxoacid:ferredoxin oxidoreductase, γ1 subunit (Thermococcus kodakarensis) (UniProt Q5JE61); experiment: as above
[3] = biological target: T2, 2-Oxoacid:ferredoxin oxidoreductase, α2 subunit (Thermococcus kodakarensis) (UniProt Q5JE85); experiment: as above
T2 sequence: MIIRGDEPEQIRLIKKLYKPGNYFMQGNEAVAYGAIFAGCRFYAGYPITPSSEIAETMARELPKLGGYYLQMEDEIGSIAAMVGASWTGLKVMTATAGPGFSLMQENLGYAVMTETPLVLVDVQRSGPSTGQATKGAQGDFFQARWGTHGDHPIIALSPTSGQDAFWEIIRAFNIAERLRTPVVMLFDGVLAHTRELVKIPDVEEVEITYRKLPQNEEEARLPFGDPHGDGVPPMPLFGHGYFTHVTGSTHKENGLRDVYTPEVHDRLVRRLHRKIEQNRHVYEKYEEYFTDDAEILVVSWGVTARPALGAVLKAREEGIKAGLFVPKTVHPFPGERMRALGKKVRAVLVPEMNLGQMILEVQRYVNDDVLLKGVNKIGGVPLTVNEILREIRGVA

[4] = biological target: 2-Oxoacid:ferredoxin oxidoreductase, γ1 subunit (Thermococcus kodakarensis) (UniProt Q5JE61); experiment: affinity purification with mass spectrometry; as a1, only the purifications from cells grown with elemental sulfur (+S˚)
[5] = biological target: T3, [4Fe-4S] cluster-binding protein associated with FDH, FDHγ4 (Thermococcus kodakarensis) (UniProt Q5JHV8); experiment: affinity purification with mass spectrometry; as a1, only the purifications from cells grown without elemental sulfur (–S˚)
T3 sequence: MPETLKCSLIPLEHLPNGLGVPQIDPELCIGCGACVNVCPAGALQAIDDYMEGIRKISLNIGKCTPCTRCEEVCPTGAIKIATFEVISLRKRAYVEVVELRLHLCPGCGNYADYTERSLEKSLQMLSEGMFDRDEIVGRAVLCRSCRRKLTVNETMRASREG

[6] = biological target: T4, [4Fe-4S] cluster-binding protein associated with FDH, FDHγ2 (Thermococcus kodakarensis) (UniProt Q5JHW1); experiment: affinity purification with mass spectrometry; HA- and His6-tagged bait made from its native locus, captured from clarified T. kodakarensis lysate on a Ni2+-charged chelating column (buffer A: 10 mM Tris HCl pH 8.0, 500 mM NaCl, 10% glycerol), eluted with an imidazole gradient; pooled fractions identified by MuDPIT LC-MS/MS and compared with the parental strain TS559 (P < 0.05, log2 fold change ≥ 2); cells grown at 85°C with (+S˚) or without (–S˚) elemental sulfur
T4 sequence: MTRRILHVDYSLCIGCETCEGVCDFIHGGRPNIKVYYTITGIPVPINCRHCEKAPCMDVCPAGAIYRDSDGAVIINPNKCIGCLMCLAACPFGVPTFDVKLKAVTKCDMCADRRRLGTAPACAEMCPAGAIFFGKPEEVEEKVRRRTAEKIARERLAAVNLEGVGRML

[7] = biological target: T3, [4Fe-4S] cluster-binding protein associated with FDH, FDHγ4 (Thermococcus kodakarensis); experiment: as above
[8] = biological target: T5, Membrane-bound sulfane reductase, NiFe-hydrogenase large subunit 2, MBS-L (Thermococcus kodakarensis) (UniProt Q5JGG2); experiment: as above
T5 sequence: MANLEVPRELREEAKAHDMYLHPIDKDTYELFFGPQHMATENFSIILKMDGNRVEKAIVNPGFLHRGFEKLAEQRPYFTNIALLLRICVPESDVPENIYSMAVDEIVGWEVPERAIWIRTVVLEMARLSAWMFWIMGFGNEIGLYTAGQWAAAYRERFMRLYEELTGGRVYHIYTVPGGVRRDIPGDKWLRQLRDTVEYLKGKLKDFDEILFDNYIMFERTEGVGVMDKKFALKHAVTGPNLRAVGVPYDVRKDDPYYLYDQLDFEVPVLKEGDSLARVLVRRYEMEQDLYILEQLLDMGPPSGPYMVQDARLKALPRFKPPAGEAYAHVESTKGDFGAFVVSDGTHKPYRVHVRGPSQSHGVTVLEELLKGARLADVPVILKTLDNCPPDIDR

[9] = biological target: T1, 2-Oxoacid:ferredoxin oxidoreductases, β2 subunit (Thermococcus kodakarensis); experiment: as above; remark: listed apart in the source
[10] = biological target: 2-Oxoacid:ferredoxin oxidoreductase, γ1 subunit (Thermococcus kodakarensis) (UniProt Q5JE61); experiment: as above; remark: listed apart in the source
[11] = biological target: T2, 2-Oxoacid:ferredoxin oxidoreductase, α2 subunit (Thermococcus kodakarensis); experiment: as above; remark: listed apart in the source

B2: 2-Oxoacid:ferredoxin oxidoreductases, β2 subunit (protein, UniProt Q5JE71 1-288)
chain: T1 sequence
binding [4]: no binding (only cells grown with S˚)
binding [2]: binds

B3: Formate dehydrogenase, [4Fe-4S] cluster-binding protein, FDHγ3 (protein, UniProt Q5JHV9 1-166)
chain: MARKTVFIDFSKCIECRACEVACEREHNGRSFINVFEWQEMAAMALNCRHCEKAPCLEVCPTNALYRDGDGAVLLAPQKCIGCLMCGIVCPFGIPELDSLDKIMMKCDLCAHRRAEGKLPACVETCPTDALLFGDFNDIQRMRRQKFTEKAIEIAKSGERIQFRGV
binding [5]: no binding (only cells grown without S˚)
binding [6]: binds
binding [7]: binds

Results, then the binder that gave them:

binding [1]: no binding
binding [2]: binds
binding [3]: no binding
B1: OGORα1 (TK1125) (protein, UniProt Q5JE59 1-382)
chain: MRYPFPVGKADFIQGDEAIARAAILAGCRFYAGYPITPASEIFEAMALYMPLVDGVSIQMEDEIASIAAIIGASWAGAKAMTATSGPGFSLMQENIGYAVMTETPIVVVDVQRGGPSTGQPTLAAQGDIMQSIWGTHGDHTLIVLSPSTVQEAFDFTIRAFNLAEKYRTPVVLLTDAEVAHMRERVYIPNPDDIELVYRKLPQNEEEAKLPFGDPHGDGIPPMPIFGKGYRTYVTGLTHDERGRPKTVDAEVHERLIKRIIGKIENNKHDIISYEKFELDDADVAIVSTGIVSRSAIRAVKILREKGIKAGLLKLNTIWPFDFDMMEELAEQVKKIFVPEMNMGQLYHLVKEGANGKAEVELISKIGGEVHTPMEIVERVVG

binding [8]: binds
binding [9]: binds
binding [10]: binds
binding [11]: binds
B4: RBR3 (TK1056) (protein, UniProt Q5JDZ0 1-158)
chain: MNELEALALALEVEKNELKFYLKLARKTTDERARKMFLFLAKEEAEHWDLFEEKFVERLIEKCELPPVDKELAQKLIVEEPETLSEVEAVKIGMEQEKLTWEFYEKAAKEAEHESVRRLFEELAKVEKGHYELLKAQYDSVMQTGIWMDYQDFSLEVD
